Measured values taken from publication PMC8986756.
No constants are given. Whether binding was seen depends on the method and setting. Binding seen in cells or lysates may run through a third protein. Some binding calls cover weakened binding; strength is not graded here.

The chains behind the UniProt entries cited, without tags or fusion partners.
UniProt Q14184: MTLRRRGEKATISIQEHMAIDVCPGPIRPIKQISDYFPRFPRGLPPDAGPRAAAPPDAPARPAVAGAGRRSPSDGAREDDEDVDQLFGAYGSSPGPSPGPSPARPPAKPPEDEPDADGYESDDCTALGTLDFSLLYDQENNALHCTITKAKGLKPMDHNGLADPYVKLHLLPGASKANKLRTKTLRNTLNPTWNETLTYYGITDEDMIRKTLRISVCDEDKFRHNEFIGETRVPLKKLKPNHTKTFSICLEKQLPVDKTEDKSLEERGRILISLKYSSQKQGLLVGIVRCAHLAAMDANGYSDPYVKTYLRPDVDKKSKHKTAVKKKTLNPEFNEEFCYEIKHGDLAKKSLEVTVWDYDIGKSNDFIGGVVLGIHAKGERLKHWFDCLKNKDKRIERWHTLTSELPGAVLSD
UniProt O95863: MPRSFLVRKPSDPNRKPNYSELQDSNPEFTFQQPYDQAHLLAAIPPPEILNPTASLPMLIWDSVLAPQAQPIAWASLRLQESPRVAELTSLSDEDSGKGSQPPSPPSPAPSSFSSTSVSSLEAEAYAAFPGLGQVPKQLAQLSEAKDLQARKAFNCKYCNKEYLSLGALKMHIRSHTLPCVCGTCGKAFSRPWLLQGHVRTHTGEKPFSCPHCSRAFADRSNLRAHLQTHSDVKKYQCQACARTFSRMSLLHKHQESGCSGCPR

Molecular target: Double C2-like domain beta (DOC2B) (human) (UniProt Q14184)
Test: co-IP; NP40 lysate (250 μg) of DOC2B-expressing SiHa cells incubated with 1 μg anti-DOC2B antibody (rabbit IgG as control) overnight at 4 °C, protein A/G immuno-magnetic beads 6 h at 4 °C, washed with 0.01% PBST; immunoblot with anti-CDH1 and anti-SNAI1

- binding: binds
Substance: Snail family transcriptional repressor 1 (SNAI1) (from UniProt O95863 1-264)
